These are yes or no findings as the source states them, for the method shown. In cells and extracts the contact can be indirect. Here binding means that the protein was enriched with, or labelled near, the bait; the list need not be complete.
T1: Cdc3-mCherry (C. neoformans) (UniProt J9VUF2)
T1 sequence: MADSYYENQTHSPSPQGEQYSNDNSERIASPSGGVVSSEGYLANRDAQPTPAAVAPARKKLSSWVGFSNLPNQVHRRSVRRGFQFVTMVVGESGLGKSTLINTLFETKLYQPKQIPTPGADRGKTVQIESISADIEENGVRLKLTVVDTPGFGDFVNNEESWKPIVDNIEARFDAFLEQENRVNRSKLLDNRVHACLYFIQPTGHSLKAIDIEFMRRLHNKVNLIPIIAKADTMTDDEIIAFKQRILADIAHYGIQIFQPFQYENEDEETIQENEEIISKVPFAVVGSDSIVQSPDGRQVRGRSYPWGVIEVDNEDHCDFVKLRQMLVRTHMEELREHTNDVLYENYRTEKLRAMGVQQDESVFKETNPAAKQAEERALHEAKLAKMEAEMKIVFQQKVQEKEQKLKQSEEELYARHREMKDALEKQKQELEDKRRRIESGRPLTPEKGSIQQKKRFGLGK

B1: Maintenance of telomere capping protein 1 (protein, UniProt J9VNZ4 1-475)
chain: MPPKGKKTKAEEALDFLSNLDNLDAPDTSSPPPTADATRDSTDSTRKSLSASRELPNKAAAKPTAEDEEAESALAFLNAQINQKRAKPLSDSRSGTPLSAAGSSAATGSASTSAPKPKTPATEPTNMPTGTPAPAQSSGGWGSFWSTATSALQSAQRVADEQYQKVKSEGVNGVTGQLESLRVNVKSVPGVDLSKLRKGAEERLGGFVRGVDLDKLRKDLVNTTSSTLTTILDTVAPPISEHETLELWLSHPMIGYAGVEGVIYRAWARILEQTESGELIIVWSPSPTPGDSSGEPRGINPVEGWDAAWELGKKEIAAIKAREEEKPRGRAEAKRNMPVTTVPIFLHLQPLLVRLPYAEPPIHSSTSIQDKPFTPPNHLYFLFTLDDPTHSLTFTTVSQPTPSDWMDVEYENSEWVEERLVEVLRTGVEVIAQDYVATRMGLKPSAPQAAAVAALVEQANQEGENKAATDEKKSD
B2: RBR-type E3 ubiquitin transferase (protein, UniProt J9VWC9 1-523)
chain: MSSDGENEDLAYEDDYDDAFDADDAMDDSTSEPDDFDVLSPTIETAPSKKPYDVNYTVYDLKEIIGMQKKMIDEVAALLVIPASTAAALLRHFNWNTEKLQEVFWTEPDATLLAAGLSPPSSPSTSTQPLPGSQSGSFECPICFTDYEGKFAQQDTFAMGCGHRFCKTCWGEYLTGKIKEEGESGRIQCMESGCKRVVKGEMVKELAGDKTSDRYYNLLNAAFVSDSPNLRWCPHPDCPYIIGCTQAPQRMLNQLVPTVECKCGKDLCFGCGYAASHRPVICKIVRLWEKKCADDSETANWLQANTKECTKCQSTIEKNGGCNHMTCKKCKWEFCWVCMGPWSEHGTNWYQCNRFDEKSGIDARDVQAKSRASLERYLHYFNRWANHEHSAKLDTEFYAKTEKKMEQMQDAGNLSWIEVQFAKQAVDAVIRARITLKWTYCMAFYLKRNNQTELFEDNQRDLERAVENLSYLLEQNIGEPESIAKLRHDVTNQAAYVQKRHEIMMDDTLRGHLEHRWEFTVDV
B3: Protein-serine/threonine kinase (protein, UniProt J9VW37 1-446)
chain: MSKFRISSALWDKIHHFASFPQTGVSLQQMILFGQNPSQGTLLKASQFLSEELPIRLSHRVVELEGLPDGLSKMPSINTVKEWYAQSFDELVSFPRPRLKPELEDILRIPPAPTQPFPSATPNPSLDPLMREGPVGSGFVSERHIGTGGNGIGVGKRLRIPIERRYFSPPPPTIIYPPEVHDYNEKFTQLLQVIKHRHDPTVTTVAQGVLEWKRTQKTSVIGTPIQEFLDRFYMSRIGIRFLIGQHIALNTLPPHPDYVGIICTRANIHDICQEAIDNARYVCEEHYALFKSPNIKLVCPPNLTFPYIPGHLSHICFELLKNSLRAVVERYGVDNDDEYPPIKVVVVEGREDITIKISDEGGGIPRSAIPHIWTYLYTTMSDEGLEDTIQGSDFKAPMAGFGYGLPLSRLYARFFGGDLRLISMDGYGTDVYISLNKLSSSREPLQ
B4: Fe-S cluster assembly protein DRE2 (protein, UniProt J9VZC6 1-321)
chain: MPAPVPPAAPGHSSTPATQLVLGSMQRAPEYQAIITSLKSAASPSSLVQGEMVDRILDNATTLPPPPLTIHLVLPLPLPPNLLPAIPPSTQIFIHIPADAESQLGTLHAALASHSFTPILPTPSPSTLAYTSPSAPSLPTVTSVPSPAPSSSTSVTLGGARPLQLRRNGDKARKAALWAIDSPLIPDGGKSLLTPADRTRPECVFPAENGKPVKRRRACKDCTCGLKELEQEEDAQTSAAVKEAQKAFFLEGDDDIPENLKKATEGMEGIWPVDKRAEAKKTSSCGSCYLGDAFRCSSCPYLGLPPFKPGEQVQVSIGDDI
B5: DBR1 domain-containing protein (protein, UniProt J9VGM4 1-183)
chain: MSSNSPKRERLDVESPQDREARLGQLLQSISSNPNQSQESTPIKSLNPLPSRPHVVPESDVLSRVRAFLPQFQASNDALFAQARENPDSVDIEKGQSGQYISMDLGLGVFDAPENPKGDMGPIIATQPPESLTCQQEDGDEDADSDSDGDGDSTGSSSSESESEDETNGKVELNTENTQESKS
B6: RRM Nup35-type domain-containing protein (protein, UniProt J9VJ19 1-324)
chain: MSNDWWSQTPSRYTSTPIHPTLSRSQSVSQSTRTRFAGDELDPEDSRAADAVKFLPSFASSQAGRVALGTSPTGGMSMSVGSPQGERRSPQGRLSGSVHESNSPRHITRARSLAQNAALSSSTANGPAPMDEDMPPTASLRDSVTETRVATVVASNELPTPPSLLPTKSTTTLYIFGPPPNILSTLQPYLTQFGPIASYRPGPEGSNWYIVEYTTPMGAAYALRRHGEVLGGQWMIGFKVGIGGAMEGIGSAPGEGDAQGSSSQVPPPTAGTPIRVQHKEILRPKVVQPVVAKAAVKSGNDYAWDEPEGSGGWTGWVSERLFGR
B7: General negative regulator of transcription subunit (protein, UniProt J9VW66 1-692)
chain: MALRKLQAEIDRTLKSVATGVEVFEATFDKLNYATNTTQKDKLENDLKTQIKKLQRMRDQIKAWLGNGDIKDKTALLENRRLIETQMERFKALEKETKMKAFSKEGLIAQSKLDPAEKAKRDMIDWIGSTTDELSRQIEQTEAEVESLQMGKKKKQAGERLDELEELNERREWHIGRLEVVQRMLENGQLTVGDVEDIQEDVKYFLEANMEEDFDFDNGIYDELNLQDEEDFHDYLHEHPSATDEPEPEPEPIASAPVPKTPAKEKEDKKATPHRLSKSESRDKEEEIPPSPMVVKKTPSRKTTLDKDKKDKKDKEKEDKERKDLEREEKEREERSSSSQPTPSKPVPLPPIKYAAAAAAAVGGTVSASAPSQTSLSAPSENSRDETVASPDEIAAAPISSSLPPPPPGLSRSPSQAATPQVSSPGTPGLQSHAPSIGTGAADVATPSQAPGSAIPPPGYPLPPSSSSAESSRAAAQAQVAAEQAQAQAQAQAQALAQAQAQAQTQSQLSAAQIQAQLQAAQDVQGQAGVMGNLMQSFEVAKEISKRRSDDANELHAALEDSFANAPQQMDAEPPRYYHPQNPIKTPSYYPQSRLPILEDKSIYSRLELDQLFYIFYYMTGTYEQWLAARELKKQSWRFHKQYLTWFQRAHNPQAITSDYEQGGYYYFDWENSWCQRRKSDFRFEYRWLSDH
B8: DLH domain-containing protein (protein, UniProt J9VSC3 1-322)
chain: MQARARLTSTLPLRSRLVSTSYERSGRNLSTFTTSSRTSSLVKFFIVNYNNTRSFTNITGKMSKNTECCPPQSNSNPSKPNVPHPTSDPIGYKYKGEFKSVANYDKVYVTGPESAKHALVVIYDIFGFWDTTIKGSDTLVSHLASTFPTKVLMPDVFKGKPFPADKDGDKETLQKFFATTAKLDERLPEVLDFAKELQKSYEKVSILGYCWGGKLTLLSLVEGTPFNAGAVAHPAMIAPEDGEKLSVPLGFYPSHDEPKDVIEKIVNDFKSKPFGDKCGYHLYDTVHHGWAAARANLNDPENVKQFEDVYKRLSEWFASVKA
B9: Coronin (protein, UniProt J9VJD9 1-695)
chain: MSRFVRPSKYRHVYGSKSKVNYENVKISGSAWDTDLVAAGGKYLSVNWQASGGGAFAILPLFSPTSPPQPAGFPTKLPDIVPLARGHTAPVLDTAWNPFDDNIVASAGEDGKIFIWKVEDSAFEGWGEDQWEPEDFNPALKLSAGGRKVGQVIFHPTSSNLLTAASGDHLVRLWDISSSADEPKLVLKGHGDSIQSIAWNSVGTTLATTCRDKKLRLFDPRAGSDAVRITDGHAGVKGSRVVWLGDRDRIATTGFSRMSDRQVSLWDTSSLKNLDTQSIDSSAGVLMPFYAEGNDVLFLAGKGDGNIRYYEFEGDQLHFLNEYKTSDPQRGMTLLPRRALDTQEHEIARAYKLSGGCVEPLSFIVPRKSESFQSDIFPPANSVEPAQTAADWFTGKNVRPNVVDLETGGVSASKEAVPTLTSSAPAAAPAQASAPSSTPSPAPAPVKEEPKSAPVYTPSPPAAPTQAPAPAAADVPIAVKKEIDSVPEITAKGLEIEQPEEASEDEQEEDKGPVEKVQDSLKSLTVGKEEPEKESNGVVAPSNTLLIKKLSPSATLPTRGSSLSAGYDLYSAEETVVPARGKALIDSGLCIAVPEGTYGRVAPRSGLASKHSIDTGAGVIDADYRGPVKVLLFNYSDSDFTIQKGDRIAQLILEKIVMAPIVEVEDLDATARGSGGFGSTGGFGKAVKDVAGSLI
B10: DUF953 domain-containing protein (protein, UniProt J9VLD8 1-119)
chain: MPLQTAPYPHVFNALNGPTAPAVSYIVFYSNIVDGQMWCPDCRAVENVVKETFDTPDKPNAAIFWVGNRQEWRTPNNQARTEWNVNSVPTILRLENGKETGRLVEDEILDKARLQAFIK
B11: Proteasome inhibitor PI31 subunit (protein, UniProt J9VDS2 1-419)
chain: MSDPLNAASLLGLLPTLLPQETTSPLPLSTDAIAALVHTIHTALQFRLVSPAPQTADDSSKLEQLGSGGDNDDAMSEVTAVEQEDNSQPPVGRLAEGWNSRGEDSYSFQYRHDQSAMNFRVRVGKMGNRAQIDAMAEDGEPHNLSIVISELVDSELFPIPSSATASSASNQGFPDASATAVGFKSINDVKAFVERYSRDIISRLLPGLSISGYNQASGSDPRAPPPAGAPQRSEPSPARPSVPRTGDPLLDNIININPSGRNPASLGHRDLDPLASLRPPGSFNPTRDGGGMLMDFNHPIFDSRRGRGLGDPDLDGPGGSVQPPGSRWDPVGPSPDGVSGGVMFPGVGGSPLGGVGRGDRDRWGDEMPPPGEFGPDLGRFGGGSGIGGPLGGGRGGGRFGGGGGGGLGGGGGFGGNMYM
B12: V-type H-transporting ATPase subunit E (protein, UniProt J9VH39 1-227)
chain: MSRSGALDDNEIQSEMNKMVAFISQEAREKAREIQVKADEEFAIEKAKIVRQESLAIDAQFEKKRKQAEVSWKISQSTAINNSRLRILQSRNDHLETLFDEANKRVMELSAGDRYKDALVNLILEVLLKLLSADITLSHRPKDTELVEKSAQEAQKRYKDIAGRESNISFDPSLSDDSPGGVIGTSMGGRIKVDNTLEERLRILEEKMLPELRHDLFGPNENRKFYT
B13: Signal recognition particle subunit SRP72 (protein, UniProt J9VGD8 1-313)
chain: MAPPAKPTSTPKRKPFSPKPPRPAEERLPKLYRALTDQVDDGYFENAIKTCKKILALDASSQTAFQTLLFLHLQTDDYTSALSLLDHPSNEQSLDFERAYCLYRLHREKEALEVLKGLSEKGRKTDHLEAQILYRLGEYSQAQEIYEGMLADCDVSSPEHADIVTNLSATTAHLDFDTHGYHSHLSTTISSTSQTPMNTADLETIVPSLPTGWSSGGLAATVEKKTATVKAPEEKNERSRPRHKLPKGVVAGKEFTEDPERWIPFRQRLSYITAQSKKKGAKESMGTGFTQGSTGGHSAGSGGGGKSKKGKRK

biological target: T1, Cdc3-mCherry (C. neoformans); assay: affinity purification with mass spectrometry; mCherry-tagged septin captured from C. neoformans lysate on RFP-Trap agarose, 4 h at 4°C, washed with TBS with 2 M urea pH 7.5; GeLC-MS/MS; untagged H99 as negative control; hits logFC >2 and adjusted p <0.001 (text-named hits <0.05); exponential cultures at ~25°C or shifted to 37°C for 2 h; N = 5

binding, binds:
B1
B2
B3
B4
B5
B6
B7
B8
B9
B10
B11
B12
B13
